Data as given in the supplement of paper PMC12282887.
These are raw signals, not scaled to a control.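 Maximum concentrations were near the MIC for antimicrobials, 500 µM for most other compounds, and as high as 1 mM for known inducer-like compounds. Deletion strains began with a tenfold smaller inoculum, and wells with growth under 10% of the overall median counted as non-growing.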

Tested on: Escherichia coli BW25113
Test: growth (OD600 area under curve, 8 h) (OD600 x h); higher = more growth
Protocol: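 E. coli BW25113 reporter strains (wild type, ΔmarA, ΔsoxS, Δrob, each carrying one of 8 lux reporter plasmids) were grown in 40 µl LB in 384-well plates at 37°C, 800 rpm, with each compound at 4 two-fold concentrations, in biological duplicates. Growth is the baseline-corrected OD600 area under the curve over 8 h (0-8 h WT, 1-9 h deletion strains).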

COc1cc(Cc2cnc(N)nc2N)cc(OC)c1OC [Trimethoprim]
growth
Settings	reporter plasmid: EVC	reporter plasmid: acrABp	reporter plasmid: marRABp	reporter plasmid: micFp	reporter plasmid: ompFp	reporter plasmid: robp	reporter plasmid: soxSp	reporter plasmid: tolCp
0.073 µg/ml, genetic background: wild type	3.225	3.29	3.46	2.78	3.24	3.4	2.76	2.71
0.073 µg/ml, genetic background: ΔmarA	3.01	4.68	3.83	3.38	4	3.76	2.649	3.07
0.073 µg/ml, genetic background: Δrob	2.97	3.643	3.55	2.9	2.86	3.05	2.8	2.67
0.073 µg/ml, genetic background: ΔsoxS	3.48	3.67	3.63	2.9663	3.11	3.77	3.33	3.21
0.15 µg/ml, genetic background: wild type	3.12	3.16	3.24	2.765	3.01	3.23	2.84	2.68
0.15 µg/ml, genetic background: ΔmarA	2.91	4.4	3.566	3.36	3.76	3.75	2.93	2.82
0.15 µg/ml, genetic background: Δrob	3.05	3.399	3.25	2.79	2.88	2.9	2.62	2.58
0.15 µg/ml, genetic background: ΔsoxS	3.557	3.79	3.36	3.09	3.06	3.455	3.19	3.37
0.29 µg/ml, genetic background: wild type	3.2	3.25	3.55	2.71	3.09	3.58	2.75	2.92
0.29 µg/ml, genetic background: ΔmarA	2.8	4.66	3.85	3.2	3.93	3.884	2.76	2.779
0.29 µg/ml, genetic background: Δrob	3.18	3.49	3.5	2.84	2.67	2.97	2.63	2.796
0.29 µg/ml, genetic background: ΔsoxS	3.39	3.81	3.71	3.01	3.23	3.86	3.56	3.23
0.58 µg/ml, genetic background: wild type	3.09	2.61	3.14	2.64	2.62	3.18	2.73	2.77
0.58 µg/ml, genetic background: ΔmarA	2.63	3.82	2.87	3.09	3.09	3.49	2.4	2.62
0.58 µg/ml, genetic background: Δrob	3.26	2.55	2.91	2.657	2.18	2.287	2.64	3.09
0.58 µg/ml, genetic background: ΔsoxS	3.47	2.98	3.05	2.56	2.42	2.68	3.04	3.36

COc1cc(C=O)ccc1O [Vanillin]
growth
Settings	reporter plasmid: EVC	reporter plasmid: acrABp	reporter plasmid: marRABp	reporter plasmid: micFp	reporter plasmid: ompFp	reporter plasmid: robp	reporter plasmid: soxSp	reporter plasmid: tolCp
19 µg/ml, genetic background: wild type	3.173	2.95	3.06	2.65	2.97	3.08	2.8	2.73
19 µg/ml, genetic background: ΔmarA	3.1	4.23	3.86	3.38	3.56	4.122	2.58	2.918
19 µg/ml, genetic background: Δrob	2.97	2.713	2.91	2.76	2.7	2.81	2.46	2.47
19 µg/ml, genetic background: ΔsoxS	3.61	3.4	3.27	2.89	3.21	3.35	3.12	3.15
38 µg/ml, genetic background: wild type	2.9999	2.869	2.87	2.53	2.94	3.04	2.65	2.59
38 µg/ml, genetic background: ΔmarA	2.88	4.26	3.818	3.18	3.45	4.1	2.56	2.95
38 µg/ml, genetic background: Δrob	2.76	2.81	2.9	2.51	2.8	2.74	2.23	2.34
38 µg/ml, genetic background: ΔsoxS	3.41	3.34	3.32	2.93	3.35	3.21	2.65	3.12
76.1 µg/ml, genetic background: wild type	3.219	2.59	2.91	2.57	2.91	3.2	2.706	2.75
76.1 µg/ml, genetic background: ΔmarA	2.79	3.76	3.3	3.37	3.35	3.75	2.66	2.9
76.1 µg/ml, genetic background: Δrob	2.94	2.92	2.74	2.77	2.71	2.564	2.38	2.56
76.1 µg/ml, genetic background: ΔsoxS	3.36	3.39	3.08	3.01	3.02	3.28	2.8	3.23
152.1 µg/ml, genetic background: wild type	2.97	2.37	2.86	2.55	2.87	2.91	2.51	2.67
152.1 µg/ml, genetic background: ΔmarA	2.66	3.62	2.94	3.2	3.26	3.607	2.34	2.59
152.1 µg/ml, genetic background: Δrob	2.91	2.69	2.66	2.48	2.61	2.377	2.18	2.42
152.1 µg/ml, genetic background: ΔsoxS	3.23	2.894	2.83	2.69	2.7	2.858	2.7	3.15

O=C(N[C@H](CO)[C@H](O)c1ccc([N+](=O)[O-])cc1)C(Cl)Cl [Chloramphenicol]
growth
Settings	reporter plasmid: EVC	reporter plasmid: acrABp	reporter plasmid: marRABp	reporter plasmid: micFp	reporter plasmid: ompFp	reporter plasmid: robp	reporter plasmid: soxSp	reporter plasmid: tolCp
0.12 µg/ml, genetic background: wild type	2.683	2.71	3.28	3.17	3.0051	3.26	3.074	3.03
0.12 µg/ml, genetic background: ΔmarA	2.73	3.75	3.46	3.27	3.12	3.16	2.5	2.59
0.12 µg/ml, genetic background: Δrob	2.28	2.99	3.05	2.9	2.39	2.66	2.84	2.75
0.12 µg/ml, genetic background: ΔsoxS	2.78	3.03	2.97	2.46	2.92	3.03	2.95	2.77
0.24 µg/ml, genetic background: wild type	2.484	2.61	3.06	2.86	2.65	3.19	2.87	2.86
0.24 µg/ml, genetic background: ΔmarA	2.51	3.63	3.09	2.79	2.69	2.94	2.57	2.53
0.24 µg/ml, genetic background: Δrob	2.18	2.82	2.98	2.71	2.3	2.57	2.71	2.65
0.24 µg/ml, genetic background: ΔsoxS	2.54	2.77	2.89	2.21	3.08	2.92	2.7	2.41
0.48 µg/ml, genetic background: wild type	2.19	2.14	2.81	2.464	2.57	2.95	2.77	2.55
0.48 µg/ml, genetic background: ΔmarA	1.88	2.86	2.511	2.31	2.45	2.55	2.16	1.848
0.48 µg/ml, genetic background: Δrob	2.09	2.249	2.66	2.09	1.95	2.01	2.52	2.31
0.48 µg/ml, genetic background: ΔsoxS	2.44	2.55	2.43	1.96	2.41	2.58	2.41	1.98
1 µg/ml, genetic background: wild type	1.19	0.673	1.33	1.34	0.974	1.1	1.809	1.74
1 µg/ml, genetic background: ΔmarA	0.773	0.782	0.43	1.03	0.397	0.833	1.31	0.728
1 µg/ml, genetic background: Δrob	0.661	0.329	0.554	0.787	0.0986	0.164	1.67	1.24
1 µg/ml, genetic background: ΔsoxS	1.05	0.401	0.605	0.307	0.188	0.159	0.53	1.01

C[C@]12CC[C@@H]3c4ccc(O)cc4CC[C@H]3[C@@H]1CC[C@@H]2O [Estradiol]
growth
Settings	reporter plasmid: EVC	reporter plasmid: acrABp	reporter plasmid: marRABp	reporter plasmid: micFp	reporter plasmid: ompFp	reporter plasmid: robp	reporter plasmid: soxSp	reporter plasmid: tolCp
17 µg/ml, genetic background: wild type	3.16	2.89	3.325	3.37	3.06	3.42	3.11	3.24
17 µg/ml, genetic background: ΔmarA	3.51	4.19	3.92	3.2	3.71	3.94	3.12	3.2
17 µg/ml, genetic background: Δrob	2.72	3.23	3.51	3.33	2.79	3.07	3.14	3.46
17 µg/ml, genetic background: ΔsoxS	3.18	3.3	3.35	2.84	3.69	3.35	3.31	3.19
34 µg/ml, genetic background: wild type	3.04	2.77	3.319	3.28	3.23	3.167	3.222	3.215
34 µg/ml, genetic background: ΔmarA	3.34	4.78	4.114	3.24	3.55	3.88	3	3.12
34 µg/ml, genetic background: Δrob	2.83	2.93	3.58	3.21	2.87	2.86	2.95	3.34
34 µg/ml, genetic background: ΔsoxS	3.13	3.13	3.27	2.51	3.59	3.07	3.05	3.17
68.1 µg/ml, genetic background: wild type	3.15	2.89	3.42	3.13	3.32	3.66	3.23	3.34
68.1 µg/ml, genetic background: ΔmarA	3.58	4.39	4	3.3	3.448	4.16	2.88	3.33
68.1 µg/ml, genetic background: Δrob	2.58	3.16	3.4	3.17	2.74	2.95	2.82	3.07
68.1 µg/ml, genetic background: ΔsoxS	3.135	3.22	3.47	2.43	3.04	3.18	2.86	2.93
136.2 µg/ml, genetic background: wild type	2.87	2.72	3.31	3.1	3.08	3.31	3.13	2.98
136.2 µg/ml, genetic background: ΔmarA	3.3	4.48	4.14	3.32	3.69	4.18	3.03	2.97
136.2 µg/ml, genetic background: Δrob	2.56	2.8	3.65	3.07	2.58	2.81	2.62	2.96
136.2 µg/ml, genetic background: ΔsoxS	3.31	2.92	2.83	2.47	2.8	3.09	3.16	3.11

Cn1c(=O)[nH]c2[nH]c(=O)[nH]c2c1=O [1-Methyluric acid]
growth
Settings	reporter plasmid: EVC	reporter plasmid: acrABp	reporter plasmid: marRABp	reporter plasmid: micFp	reporter plasmid: ompFp	reporter plasmid: robp	reporter plasmid: soxSp	reporter plasmid: tolCp
11.4 µg/ml, genetic background: wild type	2.34	3	3	2.98	2.746	2.83	2.65	2.78
11.4 µg/ml, genetic background: ΔmarA	2.76	3.78	3.3	2.83	3.08	3.01	2.32	2.63
11.4 µg/ml, genetic background: Δrob	2.39	3.09	3.1	2.74	2.14	2.52	2.43	2.47
11.4 µg/ml, genetic background: ΔsoxS	2.45	2.68	3.12	2.41	2.55	2.76	2.68	2.54
22.8 µg/ml, genetic background: wild type	2.28	2.99	2.885	2.87	2.67	2.7739	2.55	2.65
22.8 µg/ml, genetic background: ΔmarA	2.73	3.54	3.24	2.75	2.93	3.04	2.26	2.62
22.8 µg/ml, genetic background: Δrob	2.3	3.14	3.34	2.761	2.28	2.63	2.45	2.36
22.8 µg/ml, genetic background: ΔsoxS	2.3	2.79	3.09	2.08	2.27	2.97	2.47	2.42
45.5 µg/ml, genetic background: wild type	2.362	3.19	3.08	2.67	2.94	2.9	2.47	2.5
45.5 µg/ml, genetic background: ΔmarA	3.45	4.51	4.08	2.768	3.58	4.26	2.67	2.98
45.5 µg/ml, genetic background: Δrob	2.15	3.37	3.41	2.72	2.699	2.85	2.27	2.42
45.5 µg/ml, genetic background: ΔsoxS	2.29	3.02	3.28	1.98	2.66	3.31	2.68	2.22
91.1 µg/ml, genetic background: wild type	2.48	3.19	3.13	2.69	2.91	2.97	2.51	2.51
91.1 µg/ml, genetic background: ΔmarA	3.19	4.26	3.46	2.65	3.49	3.94	2.46	2.73
91.1 µg/ml, genetic background: Δrob	2.29	3.27	3.65	2.68	2.65	2.7	2.32	2.43
91.1 µg/ml, genetic background: ΔsoxS	2.37	2.85	3.26	1.87	2.67	3.15	2.61	2.21
